Assay results published in patent publication US7919261B2, “Methods for predicting treatment response based on the expression profiles of protein and transcription biomarkers” (Merck Sharp & Dohme Corp., priority 2006, dated 2011).
Where two headings read alike, the source gives them in different places.

What was measured:
Test in all cases: CellTiter-Blue Cell Viability Assay
U266 = assay type: cell-based; conditions: Homo sapiens, U-266; cell line U266, Multiple Myeloma; read-out: IC50 (μM) (Cell Titre-Blue assay)
Protocol: (§1) For the proliferation assay, cell lines were seeded on 96-well plates (Corning). After 24 hours of plating, the 96-well plates were treated with vorinostat (SAHA) (0, 0.004-30 uM). The CellTiter-Blue Reagent™ was added to each of the wells. Experiments were performed in triplicate. The plates were then placed at 37° C. for two hours, and subsequently read on the Flex Station II […] from Molecular Devices. The IC50 values were calculated using the Sigma Plot software. Combination index for the studies to test efficacy of Vorinostat and JAK inhibitors was calculated with CalcuSyn software (is there a web site for this or a reference that describes the software)
(§2) An expanded set of 50 human cell lines, including the twelve cell lines listed in Table 1, were assembled (Table 2), that represent a range of lymphoid tumor types (including 10 diffuse large B cell lymphoma, 10 Burkitt lymphoma, 8 multiple myeloma and 5 CTCL). As detailed in Example 1, each of these cell lines was cultured in vitro and response to vorinostat was assessed at 8 different concentrations (0 and 0.04 to 30 micromolar) at 24 hr using the ApoONE™ Homogeneous Caspase-3/7 Assay (Promega) and at 24, 48 and 72 h using the CellTiter-Blue™ Cell Viability Assay (Promega). The CellTiter Blue assay was used to determine the vorinostat IC50 for each cell line.

Raji = assay type: cell-based; conditions: Homo sapiens; cell line Raji, Lymphoma - Burkitts; read-out: IC50 (μM) (Cell Titre-Blue assay)
Protocol: as §1, §2

EJM = assay type: cell-based; conditions: Homo sapiens; cell line EJM, Multiple Myeloma; read-out: IC50 (μM) (Cell Titre-Blue assay)
Protocol: as §1, §2

Farage = assay type: cell-based; conditions: Homo sapiens; cell line Farage, Lymphoma- non Hodgkins B cell; read-out: IC50 (μM) (Cell Titre-Blue assay)
Protocol: as §1, §2

JM1 = assay type: cell-based; conditions: Homo sapiens; cell line JM1, Lymphoma - Pre B lymphoblast; read-out: IC50 (μM) (Cell Titre-Blue assay)
Protocol: as §1, §2

SUP_T1 = assay type: cell-based; conditions: Homo sapiens, SUP-T1; cell line SUP_T1 (SUPT1), Lymphoma -T cell; read-out: IC50 (μM) (Cell Titre-Blue assay)
Protocol: as §1, §2

ST486 = assay type: cell-based; conditions: Homo sapiens; cell line ST486, Lymphoma - Burkitts; read-out: IC50 (μM) (Cell Titre-Blue assay)
Protocol: as §1, §2

RPMI8226 = assay type: cell-based; conditions: Homo sapiens, RPMI-8226; cell line RPMI8226, Multiple Myeloma; read-out: IC50 (μM) (Cell Titre-Blue assay)
Protocol: as §1, §2

SR_786 = assay type: cell-based; conditions: Homo sapiens, SR-786; cell line SR_786 (SR786), Lymphoma - ALCL; read-out: IC50 (μM) (Cell Titre-Blue assay)
Protocol: as §1, §2

U_937 = assay type: cell-based; conditions: Homo sapiens, U-937; cell line U_937, Lymphoma - histiocytic; read-out: IC50 (μM) (Cell Titre-Blue assay)
Protocol: as §1, §2

H9 = assay type: cell-based; conditions: Homo sapiens; cell line H9, Lymphoma - CTCL; read-out: IC50 (μM) (Cell Titre-Blue assay)
Protocol: as §1, §2

Pfeiffer = assay type: cell-based; conditions: Homo sapiens; cell line Pfeiffer (1), Lymphoma DLBCL; read-out: IC50 (μM) (Cell Titre-Blue assay)
Protocol: as §1, §2

RC_K8 = assay type: cell-based; conditions: Homo sapiens; cell line RC_K8 (RCK8), Lymphoma - DLBCL; read-out: IC50 (μM) (Cell Titre-Blue assay)
Protocol: as §1, §2

SUP_M2 = assay type: cell-based; conditions: Homo sapiens, SUP-M2; cell line SUP_M2 (SUPM2), Lymphoma - ALCL; read-out: IC50 (μM) (Cell Titre-Blue assay)
Protocol: as §1, §2

SC_1 = assay type: cell-based; conditions: Homo sapiens, SC-1; cell line SC_1, Lymphoma - Follicular; read-out: IC50 (μM) (Cell Titre-Blue assay)
Protocol: as §1, §2

RPMI6666 = assay type: cell-based; conditions: Homo sapiens, RPMI-6666; cell line RPMI6666, Lymphoma - Hodgkins; read-out: IC50 (μM) (Cell Titre-Blue assay)
Protocol: as §1, §2

DOHH_2 = assay type: cell-based; conditions: Homo sapiens, DOHH-2; cell line DOHH_2, Lymphoma Follicular; read-out: IC50 (μM) (Cell Titre-Blue assay)
Protocol: as §1, §2

EB_2 = assay type: cell-based; conditions: Homo sapiens, EB2; cell line EB_2, Lymphoma - Burkitts; read-out: IC50 (μM) (Cell Titre-Blue assay)
Protocol: as §1, §2

HT = assay type: cell-based; conditions: Homo sapiens; cell line HT (1), Lymphoma DLBCL; read-out: IC50 (μM) (Cell Titre-Blue assay)
Protocol: as §1, §2

JEKO_1 = assay type: cell-based; conditions: Homo sapiens, JeKo-1; cell line JEKO_1, Lymphoma - Mantle cell; read-out: IC50 (μM) (Cell Titre-Blue assay)
Protocol: as §1, §2

MC116 = assay type: cell-based; conditions: Homo sapiens; cell line MC116, Lymphoma - undifferentiated; read-out: IC50 (μM) (Cell Titre-Blue assay)
Protocol: as §1, §2

NAMALWA = assay type: cell-based; conditions: Homo sapiens; cell line NAMALWA, Lymphoma - Burkitts; read-out: IC50 (μM) (Cell Titre-Blue assay)
Protocol: as §1, §2

BC_1 = assay type: cell-based; conditions: Homo sapiens, BC1; cell line BC_1, Lymphoma - B cell PEL; read-out: IC50 (μM) (Cell Titre-Blue assay)
Protocol: as §1, §2

MJ = assay type: cell-based; conditions: Homo sapiens; cell line MJ, Lymphoma- CTCL; read-out: IC50 (μM) (Cell Titre-Blue assay)
Protocol: as §1, §2

EB_3 = assay type: cell-based; conditions: Homo sapiens, EB-3; cell line EB_3, Lymphoma - Burkitts; read-out: IC50 (μM) (Cell Titre-Blue assay)
Protocol: as §1, §2

Jiyoye = assay type: cell-based; conditions: Homo sapiens; cell line Jiyoye, Lymphoma - Burkitts; read-out: IC50 (μM) (Cell Titre-Blue assay)
Protocol: as §1, §2

CA46 = assay type: cell-based; conditions: Homo sapiens; cell line CA46, Lymphoma - Burkitts; read-out: IC50 (μM) (Cell Titre-Blue assay)
Protocol: as §1, §2

EB_1 = assay type: cell-based; conditions: Homo sapiens; cell line EB_1 (EB1), Lymphoma - Burkitts; read-out: IC50 (μM) (Cell Titre-Blue assay)
Protocol: as §1, §2

Ramos_RA_1 = assay type: cell-based; conditions: Homo sapiens; cell line Ramos_RA_1, Lymphoma - Burkitts; read-out: IC50 (μM) (Cell Titre-Blue assay)
Protocol: as §1, §2

BC_3 = assay type: cell-based; conditions: Homo sapiens, BC-3; cell line BC_3, Lymphoma- B Cell; read-out: IC50 (μM) (Cell Titre-Blue assay)
Protocol: as §1, §2

SU_DHL_1 = assay type: cell-based; conditions: Homo sapiens, SU-DHL-1; cell line SU_DHL_1, Lymphoma - ALCL; read-out: IC50 (μM) (Cell Titre-Blue assay)
Protocol: as §1, §2

LP-1 = assay type: cell-based; conditions: Homo sapiens; cell line LP-1, Multiple Myeloma; read-out: IC50 (μM) (Cell Titre-Blue assay)
Protocol: as §1, §2

Toledo = assay type: cell-based; conditions: Homo sapiens, cell line Toledo (avg), Lymphoma DLBCL, read-out: IC50 (μM) (Cell Titre-Blue assay)
Protocol: as §1, §2

NC_37 = assay type: cell-based; conditions: Homo sapiens, NC-37; cell line NC_37, Lymphoma - Burkitts; read-out: IC50 (μM) (Cell Titre-Blue assay)
Protocol: as §1, §2

GRANTA_519 = assay type: cell-based; conditions: Homo sapiens, Granta-519; cell line GRANTA_519, Lymphoma - Mantle cell; read-out: IC50 (μM) (Cell Titre-Blue assay)
Protocol: as §1, §2

MOLP_8 = assay type: cell-based; conditions: Homo sapiens, MOLP-8; cell line MOLP_8, Multiple Myeloma; read-out: IC50 (μM) (Cell Titre-Blue assay)
Protocol: as §1, §2

KARPAS_299 = assay type: cell-based; conditions: Homo sapiens; cell line KARPAS_299 (KARPAS-299), Lymphoma - ALCL; read-out: IC50 (μM) (Cell Titre-Blue assay)
Protocol: as §1, §2

Daudi = assay type: cell-based; conditions: Homo sapiens; cell line Daudi, Lymphoma - Burkitts; read-out: IC50 (μM) (Cell Titre-Blue assay)
Protocol: as §1, §2

Hs_445 = assay type: cell-based; conditions: Homo sapiens, Hs 445; cell line Hs_445, Lymphoma - Hodgkins; read-out: IC50 (μM) (Cell Titre-Blue assay)
Protocol: as §1, §2

NCI_H929 = assay type: cell-based; conditions: Homo sapiens, NCI-H929; cell line NCI_H929, Multiple Myeloma; read-out: IC50 (μM) (Cell Titre-Blue assay)
Protocol: as §1, §2

HH = assay type: cell-based, human; conditions: cell line HH, Lymphoma- CTCL, read-out: IC50 (μM) (Cell Titre-Blue assay)
Protocol: as §1, §2

IC50 (U266): 2.47 µM
IC50 (Raji): 1.36 µM
IC50 (RPMI8226): 1.29 µM
IC50 (Ramos_RA_1): 1.24 µM
IC50 (KARPAS_299): 1.73 µM
IC50 (Daudi): 4.1 µM
SMILES: O=C(CCCCCCC(=O)Nc1ccccc1)NO [vorinostat, suberoylanilide hydroxamic acid]
IC50 (EJM): 3.24 µM
IC50 (Farage): 2.59 µM
IC50 (JM1): 0.49 µM
IC50 (SUP_T1): 0.32 µM
IC50 (ST486): 0.78 µM
IC50 (SR_786): 14.4 µM
IC50 (U_937): 1.44 µM
IC50 (H9): 1.28 µM
IC50 (Pfeiffer): 2.57 µM
IC50 (RC_K8): 4.55 µM
IC50 (SUP_M2): 14.5 µM
IC50 (SC_1): 0.93 µM
IC50 (RPMI6666): > 30 µM
IC50 (DOHH_2): 0.71 µM
IC50 (EB_2): 9.96 µM
IC50 (HT): 2.05 µM
IC50 (JEKO_1): 0.812 µM
IC50 (MC116): 0.9 µM
IC50 (NAMALWA): 0.84 µM
IC50 (BC_1): 1.27 µM
IC50 (MJ): 2.78 µM
IC50 (EB_3): 3.36 µM
IC50 (Jiyoye): 3.7 µM
IC50 (CA46): 0.54 µM
IC50 (EB_1): 6.4 µM
IC50 (BC_3): 0.63 µM
IC50 (SU_DHL_1): 9.07 µM
IC50 (LP-1): 0.97 µM
IC50 (Toledo): 0.72 µM
IC50 (NC_37): 2.36 µM
IC50 (GRANTA_519): 3.4 µM
IC50 (MOLP_8): 1.13 µM
IC50 (Hs_445): 3.69 µM
IC50 (NCI_H929): 1.4 µM
IC50 (HH; Homo sapiens, HH): 0.89 µM
IC50 (HH): 0.89 µM
